Laboratory results taken from PMC6751202, “An aggregon in conductin/axin2 regulates Wnt/β-catenin signaling and holds potential for cancer therapy” (Nature Communications, 2019).
These are yes or no findings as the source states them, for the method shown. For some of these results: Binding seen in cells or lysates may run through a third protein. Some entries that bind do so weakly or less than the wild type. For some of these results: Tags and fused reporters may be left off the sequences shown.

Amino acid sequences for entries named in this document (tags omitted). A change or cut given only in a name is not applied to a line headed by its entry. Chains listed by the source or under a name are the forms on record and can include a tag or linker. Residues count along the entry.
HA-Cdt 2–345 (O88566, residues 2-345): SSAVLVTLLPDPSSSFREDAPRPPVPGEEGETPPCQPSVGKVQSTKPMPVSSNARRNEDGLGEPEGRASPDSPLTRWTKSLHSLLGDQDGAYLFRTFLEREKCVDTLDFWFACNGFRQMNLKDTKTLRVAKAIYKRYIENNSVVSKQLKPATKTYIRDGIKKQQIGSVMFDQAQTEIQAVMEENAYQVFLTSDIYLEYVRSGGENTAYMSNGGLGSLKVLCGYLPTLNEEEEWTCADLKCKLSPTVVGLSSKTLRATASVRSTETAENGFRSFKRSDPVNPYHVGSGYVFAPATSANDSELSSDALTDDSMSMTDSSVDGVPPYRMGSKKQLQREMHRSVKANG
GST-RGS Cdt (O88566, residues 67-208): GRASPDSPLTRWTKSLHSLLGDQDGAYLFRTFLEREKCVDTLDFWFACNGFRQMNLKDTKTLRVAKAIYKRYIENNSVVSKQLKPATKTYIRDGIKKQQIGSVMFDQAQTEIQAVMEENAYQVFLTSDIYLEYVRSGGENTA
in vitro-translated GFP-RGS (O88566, residues 81-200): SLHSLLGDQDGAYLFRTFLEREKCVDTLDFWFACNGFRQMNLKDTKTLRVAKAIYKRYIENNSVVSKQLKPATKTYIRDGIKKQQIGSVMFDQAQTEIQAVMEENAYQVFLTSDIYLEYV
GFP-Cdt 2–345 F112R (O88566, form named): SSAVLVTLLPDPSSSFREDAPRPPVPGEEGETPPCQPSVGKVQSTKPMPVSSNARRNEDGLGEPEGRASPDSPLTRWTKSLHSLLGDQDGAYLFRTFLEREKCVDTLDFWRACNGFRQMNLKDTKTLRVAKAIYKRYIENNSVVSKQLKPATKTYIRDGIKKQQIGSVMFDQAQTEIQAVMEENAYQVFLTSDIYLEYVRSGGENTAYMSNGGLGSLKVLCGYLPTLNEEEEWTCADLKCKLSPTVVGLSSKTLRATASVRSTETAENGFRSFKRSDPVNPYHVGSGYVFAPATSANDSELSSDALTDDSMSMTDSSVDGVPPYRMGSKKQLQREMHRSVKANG
GFP-Cdt 2–345 Y93S (O88566, form named): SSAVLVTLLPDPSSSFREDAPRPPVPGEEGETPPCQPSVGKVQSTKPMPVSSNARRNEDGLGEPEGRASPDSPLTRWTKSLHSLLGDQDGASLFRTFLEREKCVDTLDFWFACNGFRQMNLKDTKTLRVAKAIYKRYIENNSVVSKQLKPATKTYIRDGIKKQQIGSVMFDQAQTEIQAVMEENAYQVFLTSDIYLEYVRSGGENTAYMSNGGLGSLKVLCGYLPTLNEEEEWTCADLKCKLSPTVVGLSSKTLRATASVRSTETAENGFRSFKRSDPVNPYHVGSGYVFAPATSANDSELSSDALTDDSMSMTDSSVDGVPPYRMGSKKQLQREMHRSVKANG
GST-RGS Cdt QV-PS (O88566, form named): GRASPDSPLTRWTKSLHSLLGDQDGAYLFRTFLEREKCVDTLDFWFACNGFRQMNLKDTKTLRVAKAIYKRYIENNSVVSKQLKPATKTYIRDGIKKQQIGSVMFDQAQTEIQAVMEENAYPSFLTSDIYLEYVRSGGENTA

Assays:
HA-Cdt 2–345 (mouse) = HA-Cdt 2–345 (mouse) (UniProt O88566); assay: native gel or EMSA; lysates of HEK293T cells transfected with HA-Cdt 2–345 alone or together with P^182–195; PAGE under non-denaturing conditions, Western blot for HA
[1] = molecular target: GFP-Cdt 2–345 F112R (mouse) (UniProt O88566); assay: native gel or EMSA; lysates of U2OS cells transfected with GFP-tagged Cdt 2–345 constructs; PAGE under non-denaturing conditions, Western blot for GFP
[2] = molecular target: GFP-Cdt 2–345 Y93S (mouse) (UniProt O88566); assay: as above
P^182–195-R9 (mouse) [3] = molecular target: T1, P^182–195-R9 (mouse); assay: far-Western, overlay or dot blot; nitrocellulose pieces spotted with 8 nmol synthetic peptide, blocked with 5% skimmed milk in PBS, incubated with cell-free in vitro translated GFP-RGS (PURExpress); bound GFP protein detected with antibodies; only the target purified
T1 sequence (peptide): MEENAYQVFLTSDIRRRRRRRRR

GFP-Cdt 2–345 (mouse) [4] = molecular target: GFP-Cdt 2–345 (mouse) (UniProt O88566); assay: native gel or EMSA; lysates of U2OS cells transfected with GFP-tagged Cdt 2–345 constructs; PAGE under non-denaturing conditions, Western blot for GFP
GFP-Cdt 2–345 (mouse) [5] = molecular target: GFP-Cdt 2–345 (mouse) (UniProt O88566); assay: sucrose density gradient ultracentrifugation; lysates of HEK293T cells transfected with GFP-Cdt 2–345 or its QV-PS mutant together with GFP; linear 12.5-50% (w/v) sucrose gradient, 50,000 r.p.m., 16 h, 25 °C; 20 fractions, Western blot for GFP
P^182–195-R9 (mouse) [6] = molecular target: T1, P^182–195-R9 (mouse); assay: far-Western, overlay or dot blot; nitrocellulose pieces spotted with 8 nmol synthetic peptide, blocked with 5% skimmed milk in PBS, incubated with lysates of transfected HEK293T cells; bound GFP proteins detected with antibodies; only the target purified
GST-RGS Cdt (mouse) = GST-RGS Cdt (mouse) (UniProt O88566); assay: pull-down; extract of HEK293T cells expressing GFP-SAMP aliquoted and supplemented with equal amounts of GST-tagged proteins and glutathione beads; rotation at 4 °C; Western blot; only the target purified
[7] = molecular target: GST-RGS Cdt QV-PS (mouse) (UniProt O88566); assay: as above

HA-Cdt 2–345 (from UniProt O88566 2-345) (domain or fragment)
binding (HA-Cdt 2–345 (mouse)): binds

GFP-Cdt 2–345 F112R (from UniProt O88566 2-345) (domain or fragment)
binding [1]: binds

GFP-Cdt 2–345 Y93S (from UniProt O88566 2-345) (domain or fragment)
binding [2]: binds

in vitro-translated GFP-RGS (from UniProt O88566 81-200) (domain or fragment)
binding (P^182–195-R9 (mouse) [3]): binds

GFP-Cdt 2–345 (from UniProt O88566 2-345) (domain or fragment)
binding (GFP-Cdt 2–345 (mouse) [4]): binds | binding (GFP-Cdt 2–345 (mouse) [5]): binds | binding (P^182–195-R9 (mouse) [6]): binds

B1: GFP-SAMP (domain or fragment, UniProt Q61315 1516-1591)
chain: QKDVELRIMPPVQENDNGNETESEQPEESNENQDKEVEKPDSEKDLLDDSDDDDIEILEECIISAMPTKSSRKAKK
binding (GST-RGS Cdt (mouse)): binds | binding [7]: binds

MEENAYQVFLTSDI [peptide P^182–195]
binding (HA-Cdt 2–345 (mouse)): binds
